Laboratory results as given in the supplement of paper PMC10849652.
This is one part of the list.

Sequences of proteins named here, by UniProt entry; tags and fusion partners are left off. A change or cut given only in a name is not applied to a line headed by its entry.
UniProt Q9UI26: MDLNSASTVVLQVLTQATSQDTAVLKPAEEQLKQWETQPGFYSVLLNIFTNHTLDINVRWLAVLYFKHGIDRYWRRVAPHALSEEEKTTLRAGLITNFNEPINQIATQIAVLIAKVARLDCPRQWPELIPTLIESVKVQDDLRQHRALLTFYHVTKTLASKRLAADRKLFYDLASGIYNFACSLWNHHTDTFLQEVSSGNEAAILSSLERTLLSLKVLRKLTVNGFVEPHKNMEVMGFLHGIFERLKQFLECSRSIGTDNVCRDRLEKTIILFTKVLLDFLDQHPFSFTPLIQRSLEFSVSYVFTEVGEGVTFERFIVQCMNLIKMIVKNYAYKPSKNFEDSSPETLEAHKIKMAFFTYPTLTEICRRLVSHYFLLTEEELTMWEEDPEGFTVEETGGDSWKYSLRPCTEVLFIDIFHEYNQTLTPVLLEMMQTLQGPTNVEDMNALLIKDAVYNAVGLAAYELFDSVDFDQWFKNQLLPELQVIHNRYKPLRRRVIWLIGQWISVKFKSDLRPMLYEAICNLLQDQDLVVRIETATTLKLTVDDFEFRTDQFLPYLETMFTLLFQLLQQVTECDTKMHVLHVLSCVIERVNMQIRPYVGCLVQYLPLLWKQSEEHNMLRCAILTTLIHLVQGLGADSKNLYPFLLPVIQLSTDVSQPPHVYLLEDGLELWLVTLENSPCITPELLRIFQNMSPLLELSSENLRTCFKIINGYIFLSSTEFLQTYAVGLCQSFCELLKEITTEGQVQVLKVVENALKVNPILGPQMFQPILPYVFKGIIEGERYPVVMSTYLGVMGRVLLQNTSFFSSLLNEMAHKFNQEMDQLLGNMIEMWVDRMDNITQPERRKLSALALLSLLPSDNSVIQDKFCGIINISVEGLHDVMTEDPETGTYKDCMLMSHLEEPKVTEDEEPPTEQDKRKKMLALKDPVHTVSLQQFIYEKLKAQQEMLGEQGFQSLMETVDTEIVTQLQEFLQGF
UniProt Q9NV88, whole entry, looked up: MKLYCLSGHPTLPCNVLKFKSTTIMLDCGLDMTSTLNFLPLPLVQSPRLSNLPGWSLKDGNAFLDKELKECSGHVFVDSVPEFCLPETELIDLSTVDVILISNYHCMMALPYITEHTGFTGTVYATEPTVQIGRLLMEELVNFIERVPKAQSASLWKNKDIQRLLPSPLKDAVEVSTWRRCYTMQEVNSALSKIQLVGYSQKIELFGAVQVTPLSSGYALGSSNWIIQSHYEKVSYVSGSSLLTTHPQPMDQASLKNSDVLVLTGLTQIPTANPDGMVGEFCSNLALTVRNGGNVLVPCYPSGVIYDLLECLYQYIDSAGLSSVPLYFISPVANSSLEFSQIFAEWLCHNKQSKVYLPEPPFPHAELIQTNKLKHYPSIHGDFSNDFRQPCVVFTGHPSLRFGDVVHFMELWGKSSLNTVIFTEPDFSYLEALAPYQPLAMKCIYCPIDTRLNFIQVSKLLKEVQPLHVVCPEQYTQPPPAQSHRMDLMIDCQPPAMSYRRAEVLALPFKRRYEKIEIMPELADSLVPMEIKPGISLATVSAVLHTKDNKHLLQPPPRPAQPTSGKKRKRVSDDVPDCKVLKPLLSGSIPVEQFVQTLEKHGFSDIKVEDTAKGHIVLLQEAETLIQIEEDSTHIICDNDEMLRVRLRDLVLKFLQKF
UniProt Q9H3F6: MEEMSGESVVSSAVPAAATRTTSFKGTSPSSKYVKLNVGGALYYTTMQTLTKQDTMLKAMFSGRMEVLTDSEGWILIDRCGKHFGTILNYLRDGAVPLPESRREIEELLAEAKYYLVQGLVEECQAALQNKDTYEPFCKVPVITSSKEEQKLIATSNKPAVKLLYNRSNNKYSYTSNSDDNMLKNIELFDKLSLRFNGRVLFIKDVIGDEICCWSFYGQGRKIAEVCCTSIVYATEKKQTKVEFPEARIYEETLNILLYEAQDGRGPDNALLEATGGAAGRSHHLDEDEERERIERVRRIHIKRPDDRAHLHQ
UniProt Q9NPH2: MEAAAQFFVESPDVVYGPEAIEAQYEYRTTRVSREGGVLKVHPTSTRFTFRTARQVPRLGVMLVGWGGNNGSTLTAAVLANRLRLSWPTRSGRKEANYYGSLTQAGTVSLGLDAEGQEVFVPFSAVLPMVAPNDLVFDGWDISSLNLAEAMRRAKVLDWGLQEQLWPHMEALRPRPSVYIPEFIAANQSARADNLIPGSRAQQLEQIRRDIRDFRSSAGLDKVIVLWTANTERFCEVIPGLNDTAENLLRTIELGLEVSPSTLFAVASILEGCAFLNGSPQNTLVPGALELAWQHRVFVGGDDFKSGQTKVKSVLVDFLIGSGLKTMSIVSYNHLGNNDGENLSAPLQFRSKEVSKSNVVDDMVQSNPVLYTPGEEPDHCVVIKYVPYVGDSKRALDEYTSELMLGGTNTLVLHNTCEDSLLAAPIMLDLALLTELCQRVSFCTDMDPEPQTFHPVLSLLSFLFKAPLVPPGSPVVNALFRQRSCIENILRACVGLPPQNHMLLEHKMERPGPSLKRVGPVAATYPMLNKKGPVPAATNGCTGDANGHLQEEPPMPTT
UniProt P06756, whole entry, looked up: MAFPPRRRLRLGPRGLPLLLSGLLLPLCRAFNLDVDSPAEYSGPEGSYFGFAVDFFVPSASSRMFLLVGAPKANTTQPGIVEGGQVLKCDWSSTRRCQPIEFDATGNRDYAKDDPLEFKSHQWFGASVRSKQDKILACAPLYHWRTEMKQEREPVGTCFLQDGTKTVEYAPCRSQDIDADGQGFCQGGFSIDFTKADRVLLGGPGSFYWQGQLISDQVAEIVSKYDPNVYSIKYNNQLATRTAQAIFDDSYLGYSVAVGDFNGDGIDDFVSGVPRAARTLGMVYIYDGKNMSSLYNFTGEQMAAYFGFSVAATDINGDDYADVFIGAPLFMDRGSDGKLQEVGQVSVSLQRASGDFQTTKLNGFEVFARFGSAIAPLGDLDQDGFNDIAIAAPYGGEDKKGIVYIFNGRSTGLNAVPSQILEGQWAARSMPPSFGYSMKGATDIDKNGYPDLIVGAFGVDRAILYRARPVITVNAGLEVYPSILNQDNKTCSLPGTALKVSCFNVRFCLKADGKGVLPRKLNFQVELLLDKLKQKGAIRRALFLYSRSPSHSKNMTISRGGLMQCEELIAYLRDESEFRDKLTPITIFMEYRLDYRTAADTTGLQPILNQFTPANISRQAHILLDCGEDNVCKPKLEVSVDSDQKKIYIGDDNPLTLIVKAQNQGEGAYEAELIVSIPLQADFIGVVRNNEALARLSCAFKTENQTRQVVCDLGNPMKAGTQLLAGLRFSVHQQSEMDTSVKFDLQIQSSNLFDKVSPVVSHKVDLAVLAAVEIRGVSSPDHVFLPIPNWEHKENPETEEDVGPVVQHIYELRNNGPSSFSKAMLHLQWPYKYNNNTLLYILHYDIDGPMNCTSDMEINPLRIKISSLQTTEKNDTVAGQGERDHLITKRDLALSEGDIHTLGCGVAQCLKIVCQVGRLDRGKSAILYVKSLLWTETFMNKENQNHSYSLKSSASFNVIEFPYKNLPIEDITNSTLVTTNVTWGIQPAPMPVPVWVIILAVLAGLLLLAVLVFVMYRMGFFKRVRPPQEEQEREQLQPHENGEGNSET
UniProt Q13572: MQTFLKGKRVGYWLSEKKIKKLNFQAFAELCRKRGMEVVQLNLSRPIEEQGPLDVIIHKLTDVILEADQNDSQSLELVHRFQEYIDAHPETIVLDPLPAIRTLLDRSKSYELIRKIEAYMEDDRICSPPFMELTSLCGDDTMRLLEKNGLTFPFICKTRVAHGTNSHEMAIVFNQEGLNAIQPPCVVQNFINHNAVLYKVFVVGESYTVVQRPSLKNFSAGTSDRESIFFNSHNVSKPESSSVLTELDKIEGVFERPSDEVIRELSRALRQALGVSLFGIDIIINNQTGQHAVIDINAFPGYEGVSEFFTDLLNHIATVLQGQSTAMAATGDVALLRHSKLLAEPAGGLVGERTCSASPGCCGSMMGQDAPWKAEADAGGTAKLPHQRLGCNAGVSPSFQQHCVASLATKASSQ
UniProt Q9H7Z6: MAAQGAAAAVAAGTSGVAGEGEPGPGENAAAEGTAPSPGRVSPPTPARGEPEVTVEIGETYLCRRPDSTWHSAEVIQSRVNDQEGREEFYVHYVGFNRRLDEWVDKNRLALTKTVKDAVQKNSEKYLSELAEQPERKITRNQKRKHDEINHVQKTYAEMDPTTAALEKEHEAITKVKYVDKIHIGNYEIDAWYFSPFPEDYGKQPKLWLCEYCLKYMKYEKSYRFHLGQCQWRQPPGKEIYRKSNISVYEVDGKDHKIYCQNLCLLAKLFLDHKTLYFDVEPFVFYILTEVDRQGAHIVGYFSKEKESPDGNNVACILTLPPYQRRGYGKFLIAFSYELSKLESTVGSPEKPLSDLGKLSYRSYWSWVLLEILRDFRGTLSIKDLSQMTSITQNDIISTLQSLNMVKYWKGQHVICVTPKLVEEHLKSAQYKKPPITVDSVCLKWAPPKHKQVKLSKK
UniProt Q9BUE6: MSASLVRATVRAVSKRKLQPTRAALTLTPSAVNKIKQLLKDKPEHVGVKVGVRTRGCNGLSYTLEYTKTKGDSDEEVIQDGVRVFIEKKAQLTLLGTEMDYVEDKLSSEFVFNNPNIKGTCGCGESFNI
UniProt Q9H910: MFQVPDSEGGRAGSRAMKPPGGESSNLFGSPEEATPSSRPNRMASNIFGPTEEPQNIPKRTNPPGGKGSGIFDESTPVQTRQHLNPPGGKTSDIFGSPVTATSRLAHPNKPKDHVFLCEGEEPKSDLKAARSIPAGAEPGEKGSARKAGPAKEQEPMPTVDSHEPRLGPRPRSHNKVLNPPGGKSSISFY
UniProt Q8TB96: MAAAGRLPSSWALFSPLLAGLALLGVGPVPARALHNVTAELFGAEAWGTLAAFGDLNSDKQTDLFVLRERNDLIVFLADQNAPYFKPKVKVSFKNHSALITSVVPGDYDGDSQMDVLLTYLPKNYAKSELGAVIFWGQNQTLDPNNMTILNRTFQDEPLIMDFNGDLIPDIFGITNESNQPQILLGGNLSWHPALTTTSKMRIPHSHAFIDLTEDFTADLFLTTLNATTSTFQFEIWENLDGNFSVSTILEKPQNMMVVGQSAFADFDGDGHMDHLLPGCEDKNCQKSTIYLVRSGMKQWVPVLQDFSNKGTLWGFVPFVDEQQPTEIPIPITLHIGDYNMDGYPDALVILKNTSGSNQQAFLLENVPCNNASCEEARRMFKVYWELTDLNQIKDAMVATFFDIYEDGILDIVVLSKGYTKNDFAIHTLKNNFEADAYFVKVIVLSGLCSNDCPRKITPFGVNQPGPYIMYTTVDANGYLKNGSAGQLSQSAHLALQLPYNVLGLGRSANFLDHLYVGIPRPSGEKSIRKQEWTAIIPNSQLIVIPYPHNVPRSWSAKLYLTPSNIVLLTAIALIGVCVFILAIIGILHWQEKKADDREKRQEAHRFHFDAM
UniProt P17535: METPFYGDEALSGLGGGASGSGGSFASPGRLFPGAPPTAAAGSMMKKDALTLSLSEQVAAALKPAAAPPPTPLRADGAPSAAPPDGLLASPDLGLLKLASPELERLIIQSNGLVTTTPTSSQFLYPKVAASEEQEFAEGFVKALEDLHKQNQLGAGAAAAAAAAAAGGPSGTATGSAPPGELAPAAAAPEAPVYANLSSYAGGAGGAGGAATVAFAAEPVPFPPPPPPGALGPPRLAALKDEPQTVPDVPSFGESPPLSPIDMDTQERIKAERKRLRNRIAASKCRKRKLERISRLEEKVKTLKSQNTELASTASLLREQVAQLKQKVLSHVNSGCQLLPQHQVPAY
UniProt P05556, whole entry, looked up: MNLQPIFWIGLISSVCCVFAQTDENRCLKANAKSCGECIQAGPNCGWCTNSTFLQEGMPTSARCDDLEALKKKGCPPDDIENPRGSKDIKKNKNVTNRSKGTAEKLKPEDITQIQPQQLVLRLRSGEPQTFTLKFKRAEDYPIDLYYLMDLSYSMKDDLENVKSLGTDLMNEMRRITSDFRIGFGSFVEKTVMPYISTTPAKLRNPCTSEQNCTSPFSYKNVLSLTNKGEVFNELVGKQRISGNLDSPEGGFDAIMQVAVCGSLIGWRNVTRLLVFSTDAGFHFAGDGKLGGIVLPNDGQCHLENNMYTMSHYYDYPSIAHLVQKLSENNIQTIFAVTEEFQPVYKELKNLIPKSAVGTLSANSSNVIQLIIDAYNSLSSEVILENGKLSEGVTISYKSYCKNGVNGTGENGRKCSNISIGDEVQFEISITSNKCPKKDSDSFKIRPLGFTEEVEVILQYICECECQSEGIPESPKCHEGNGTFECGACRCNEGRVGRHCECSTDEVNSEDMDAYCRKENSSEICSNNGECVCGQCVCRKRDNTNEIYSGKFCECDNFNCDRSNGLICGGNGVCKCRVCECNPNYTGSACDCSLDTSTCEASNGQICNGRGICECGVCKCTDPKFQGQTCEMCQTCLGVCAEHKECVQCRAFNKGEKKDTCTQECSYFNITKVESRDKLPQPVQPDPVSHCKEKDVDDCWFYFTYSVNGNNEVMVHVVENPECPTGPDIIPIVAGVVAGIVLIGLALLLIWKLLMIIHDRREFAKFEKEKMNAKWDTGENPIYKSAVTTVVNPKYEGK

Compound: COC(=O)[C@H](CCSC)NC(=O)C1=C(C=C(C=C1)NC[C@H](CS)N)C2=CC=CC=C2
Assay: log2 fold change, soluble protein after heating vs DMSO (PISA); higher = thermal stabilisation; K562 lysate, 10 uM; active = over 0.2 and 3.5 SD of the protein, either way, in both replicates (recomputed)
Procedure, shortened: (§1)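 A 30 min treatment with 10 μM compound was applied to crude K562 extract at 1 mg/mL protein in PBS pH 7.4 with 1 mM MgCl2. Heating for 3 min spanned 48°C-58°C, after which aliquots were pooled, adjusted to 0.5% NP-40 at 4°C and spun at 21,000xg for 90 min. TMTpro 16plex LC-MS/MS of the supernatant, with channel sums equalised, gave values recorded as log-two fold change in thermal stability against solvent controls, from duplicates.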

Target | log2 fold change
ISOC2 (UniProt Q96AB3) | inactive: 0.122
INTS5 (UniProt Q6P9B9) | inactive: -0.259
ITPKA (UniProt P23677) | active: 0.375
IPO11 isoform 2 (UniProt Q9UI26) | inactive: 0.045
JAGN1 (UniProt Q8N5M9) | inactive: -0.161
KDM1B (UniProt Q8NB78) | inactive: 0.119
KDELR2 (UniProt P33947) | inactive: 0.103
INTS9 (UniProt Q9NV88) | inactive: -0.031
KCTD10 (UniProt Q9H3F6) | inactive: 0.103
ISYNA1 (UniProt Q9NPH2) | inactive: -0.027
ISCU (UniProt Q9H1K1) | inactive: -0.082
IQGAP1 (UniProt P46940) | inactive: 0.129
INTS14 (UniProt Q96SY0) | inactive: -0.1
KDM1A (UniProt O60341) | inactive: 0.095
KBTBD2 (UniProt Q8IY47) | active: -0.362
IQSEC1 (UniProt Q6DN90) | inactive: 0.054
IRAK1 (UniProt P51617) | inactive: 0.062
ITGAV (UniProt P06756) | inactive: -0.027
KCTD9 (UniProt Q7L273) | inactive: -0.219
IRF2BPL (UniProt Q9H1B7) | inactive: -0.06

Target | log2 fold change
IRF2BP1 (UniProt Q8IU81) | inactive: 0.117
ISOC1 (UniProt Q96CN7) | inactive: -0.009
KAT7 (UniProt O95251) | inactive: 0.011
JPT1 (UniProt Q9UK76) | inactive: -0.102
KCTD5 (UniProt Q9NXV2) | inactive: -0.041
INTS7 (UniProt Q9NVH2) | inactive: 0.017
IRF3 (UniProt Q14653) | inactive: -0.097
ITPK1 (UniProt Q13572) | inactive: -0.022
KAT8 (UniProt Q9H7Z6) | inactive: 0.036
IPO5 isoform 3 (UniProt O00410) | inactive: -0.03
ISCA1 isoform 2 (UniProt Q9BUE6) | inactive: -0.003
JPT2 isoform 3 (UniProt Q9H910) | inactive: 0.003
KCTD20 (UniProt Q7Z5Y7) | inactive: -0.058
ITFG1 (UniProt Q8TB96) | inactive: 0.034
KANSL3 (UniProt Q9P2N6) | inactive: 0.023
KCT2 (UniProt Q8NC54) | inactive: -0.035
JUND (UniProt P17535) | inactive: -0.067
ISY1 isoform 1 (UniProt Q9ULR0) | inactive: -0.149
ITGB1 (UniProt P05556) | inactive: -0.029

Compound: COc1cc(Nc2ncc3c(n2)-c2ccc(Cl)cc2C(c2c(F)cccc2OC)=NC3)ccc1C(=O)O [alisertib]
Assay: as above
Procedure, shortened: as §1

Target | log2 fold change
ISOC2 (UniProt Q96AB3) | inactive: 0.022
INTS5 (UniProt Q6P9B9) | inactive: 0.028
ITPKA (UniProt P23677) | inactive: -0.004
IPO11 isoform 2 (UniProt Q9UI26) | inactive: -0.012
JAGN1 (UniProt Q8N5M9) | inactive: 0.084
KDM1B (UniProt Q8NB78) | inactive: 0.087
KDELR2 (UniProt P33947) | inactive: 0.048
INTS9 (UniProt Q9NV88) | inactive: 0.022
KCTD10 (UniProt Q9H3F6) | inactive: -0.031
ISYNA1 (UniProt Q9NPH2) | inactive: -0.038
ISCU (UniProt Q9H1K1) | inactive: -0.036
IQGAP1 (UniProt P46940) | inactive: -0.003
INTS14 (UniProt Q96SY0) | inactive: -0.018
KDM1A (UniProt O60341) | inactive: 0.012
KBTBD2 (UniProt Q8IY47) | inactive: -0.053
IQSEC1 (UniProt Q6DN90) | inactive: 0.105
IRAK1 (UniProt P51617) | inactive: -0.01
ITGAV (UniProt P06756) | inactive: -0.021
KCTD9 (UniProt Q7L273) | inactive: -0.016
IRF2BPL (UniProt Q9H1B7) | inactive: -0.031

Target | log2 fold change
IRF2BP1 (UniProt Q8IU81) | inactive: 0.042
ISOC1 (UniProt Q96CN7) | inactive: 0.033
KAT7 (UniProt O95251) | inactive: 0.081
JPT1 (UniProt Q9UK76) | inactive: -0.046
KCTD5 (UniProt Q9NXV2) | inactive: -0.043
INTS7 (UniProt Q9NVH2) | inactive: -0.022
IRF3 (UniProt Q14653) | inactive: -0.029
ITPK1 (UniProt Q13572) | inactive: -0.05
KAT8 (UniProt Q9H7Z6) | inactive: 0.023
IPO5 isoform 3 (UniProt O00410) | inactive: 0.018
ISCA1 isoform 2 (UniProt Q9BUE6) | inactive: -0.286
JPT2 isoform 3 (UniProt Q9H910) | inactive: -0.017
KCTD20 (UniProt Q7Z5Y7) | inactive: -0.089
ITFG1 (UniProt Q8TB96) | inactive: 0.017
KANSL3 (UniProt Q9P2N6) | inactive: -0.08
KCT2 (UniProt Q8NC54) | inactive: 0.077
JUND (UniProt P17535) | inactive: 0.011
ISY1 isoform 1 (UniProt Q9ULR0) | inactive: -0.012
ITGB1 (UniProt P05556) | inactive: -0.006
